Laboratory results: patent publication US20110152166A1, “METHOD OF MODULATION OF PROTEIN PHOSPHORYLATION-DEPENDENT CONFORMATIONAL TRANSITIONS WITH LOW MOLECULAR WEIGHT COMPOUNDS” (priority 2006, published 2011)
Part of at least one peptide drawing is inferred or uncertain, most often the ends. Square brackets hold non-standard residues; d marks the D form. Peptide text beside a SMILES is read from it. * marks the point of attachment. Biotin = O=C1N[C@H]2[C@H](CS[C@H]2CCCCC(=O)*)N1; pT = C[C@@H](OP(=O)(O)O)[C@H](N)C(=O)O; pS = N[C@@H](COP(=O)(O)O)C(=O)O

Target: T1, PDK1 CD wt (50-360) (Homo sapiens, UniProt O15530)
T1 construct: the catalytic domain of PDK1 (50-359) produced in SF9 insect cells; His-tag (N, cleaved yes); made in house; host or cells: SF9 insect cells (baculovirus)
T1 sequence (O15530 50-359): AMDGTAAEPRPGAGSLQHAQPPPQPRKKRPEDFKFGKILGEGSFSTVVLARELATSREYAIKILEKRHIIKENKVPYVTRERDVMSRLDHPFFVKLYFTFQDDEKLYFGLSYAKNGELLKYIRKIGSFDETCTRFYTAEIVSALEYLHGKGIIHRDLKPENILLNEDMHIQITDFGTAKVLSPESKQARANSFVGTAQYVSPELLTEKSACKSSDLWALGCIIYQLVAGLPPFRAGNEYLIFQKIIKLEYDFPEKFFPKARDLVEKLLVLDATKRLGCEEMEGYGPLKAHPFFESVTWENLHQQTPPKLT
Test: Surface plasmon resonance, PDK1 CD binding to biotin-P-HM-S6K
Settings: read-out: concentration of protein required for half maximal binding; wild type protein, FIG. 6B

## CC(C)C[C@H](NC(=O)[C@H](Cc1ccccc1)NC(=O)[C@@H](NC(=O)[C@H](CCC(N)=O)NC(=O)[C@H](CC(N)=O)NC(=O)[C@H](C)NC(=O)[C@H](CO)NC(=O)[C@H](CCC(=O)O)NC(=O)[C@H](CO)NC(=O)[C@H](CC(C)C)NC(=O)[C@@H](NC(=O)[C@H](CO)NC(=O)[C@H](CC(=O)O)NC(=O)[C@H](CC(=O)O)NC(=O)[C@@H]1CCCN1C(=O)[C@H](COP(=O)(O)O)NC(=O)[C@H](CC(=O)O)NC(=O)[C@@H](NC(=O)[C@@H]1CCCN1C(=O)[C@@H](NC(=O)[C@H](CCC(N)=O)NC(=O)[C@H](CCCCN)NC(=O)CCCC[C@@H]1SC[C@@H]2NC(=O)N[C@@H]21)[C@@H](C)O)C(C)C)[C@@H](C)O)C(C)C)C(=O)NCC(=O)N[C@@H](Cc1ccccc1)C(=O)N[C@H](C(=O)N[C@@H](Cc1ccc(O)cc1)C(=O)N[C@H](C(=O)N[C@@H](C)C(=O)N1CCC[C@H]1C(=O)N[C@@H](CO)C(=O)N[C@H](C(=O)O)C(C)C)C(C)C)[C@@H](C)OP(=O)(O)O [biotin-P-HM-S6K] (Biotin-KQTPVD[pS]PDDSTLSESANQVFLGF[pT]YVAPSV-OH; C-terminus assumed)
  Kd: 500 nM
